For the assay, the target named is FLAG-tagged Tim protein (human Timeless), wild type (human) (UniProt Q9UNS1). Put plainly: affinity purification with mass spectrometry + co-IP; FLAG-Tim purified on FLAG-agarose from a stable 293T cell line, peptide elution, compared with a FLAG-vector control line; enriched bands analysed by LC/MS/MS and partners validated by Western blot. For orientation: A western blot detects proteins with antibodies after separation by electrophoresis.

Protein sequences, listed by entry. Tags and fused reporters are not part of them.
UniProt Q9UNS1: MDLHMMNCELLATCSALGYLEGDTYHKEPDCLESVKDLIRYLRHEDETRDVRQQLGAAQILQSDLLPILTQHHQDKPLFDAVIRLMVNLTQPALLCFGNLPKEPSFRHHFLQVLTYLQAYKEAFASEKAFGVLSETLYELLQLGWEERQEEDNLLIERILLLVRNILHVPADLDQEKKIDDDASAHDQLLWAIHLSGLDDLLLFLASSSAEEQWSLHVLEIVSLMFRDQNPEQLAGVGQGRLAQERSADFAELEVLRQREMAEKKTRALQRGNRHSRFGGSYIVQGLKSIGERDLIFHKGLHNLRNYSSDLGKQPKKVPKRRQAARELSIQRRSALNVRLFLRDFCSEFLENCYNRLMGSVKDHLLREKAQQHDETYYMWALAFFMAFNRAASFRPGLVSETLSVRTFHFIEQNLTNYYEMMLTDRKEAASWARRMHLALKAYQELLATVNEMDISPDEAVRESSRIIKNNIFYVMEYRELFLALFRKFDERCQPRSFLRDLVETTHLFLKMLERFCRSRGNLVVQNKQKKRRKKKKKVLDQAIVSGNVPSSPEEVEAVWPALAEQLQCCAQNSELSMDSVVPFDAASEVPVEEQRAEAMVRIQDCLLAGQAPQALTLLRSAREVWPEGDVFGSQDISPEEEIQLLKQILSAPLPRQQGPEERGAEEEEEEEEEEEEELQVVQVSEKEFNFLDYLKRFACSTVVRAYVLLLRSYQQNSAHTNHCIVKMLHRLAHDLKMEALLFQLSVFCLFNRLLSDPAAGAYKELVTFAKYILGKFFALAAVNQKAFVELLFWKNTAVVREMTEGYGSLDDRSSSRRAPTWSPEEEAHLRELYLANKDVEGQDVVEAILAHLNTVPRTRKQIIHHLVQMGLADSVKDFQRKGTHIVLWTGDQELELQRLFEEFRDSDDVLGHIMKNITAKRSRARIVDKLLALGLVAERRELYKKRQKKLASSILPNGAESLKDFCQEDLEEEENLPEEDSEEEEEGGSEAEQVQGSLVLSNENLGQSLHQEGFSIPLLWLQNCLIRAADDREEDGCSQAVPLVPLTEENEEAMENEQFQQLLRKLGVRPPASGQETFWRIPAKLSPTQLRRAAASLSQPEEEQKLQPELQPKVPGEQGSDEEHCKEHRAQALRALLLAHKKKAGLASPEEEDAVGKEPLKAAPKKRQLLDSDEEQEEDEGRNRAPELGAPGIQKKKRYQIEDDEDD
UniProt Q9HAW4: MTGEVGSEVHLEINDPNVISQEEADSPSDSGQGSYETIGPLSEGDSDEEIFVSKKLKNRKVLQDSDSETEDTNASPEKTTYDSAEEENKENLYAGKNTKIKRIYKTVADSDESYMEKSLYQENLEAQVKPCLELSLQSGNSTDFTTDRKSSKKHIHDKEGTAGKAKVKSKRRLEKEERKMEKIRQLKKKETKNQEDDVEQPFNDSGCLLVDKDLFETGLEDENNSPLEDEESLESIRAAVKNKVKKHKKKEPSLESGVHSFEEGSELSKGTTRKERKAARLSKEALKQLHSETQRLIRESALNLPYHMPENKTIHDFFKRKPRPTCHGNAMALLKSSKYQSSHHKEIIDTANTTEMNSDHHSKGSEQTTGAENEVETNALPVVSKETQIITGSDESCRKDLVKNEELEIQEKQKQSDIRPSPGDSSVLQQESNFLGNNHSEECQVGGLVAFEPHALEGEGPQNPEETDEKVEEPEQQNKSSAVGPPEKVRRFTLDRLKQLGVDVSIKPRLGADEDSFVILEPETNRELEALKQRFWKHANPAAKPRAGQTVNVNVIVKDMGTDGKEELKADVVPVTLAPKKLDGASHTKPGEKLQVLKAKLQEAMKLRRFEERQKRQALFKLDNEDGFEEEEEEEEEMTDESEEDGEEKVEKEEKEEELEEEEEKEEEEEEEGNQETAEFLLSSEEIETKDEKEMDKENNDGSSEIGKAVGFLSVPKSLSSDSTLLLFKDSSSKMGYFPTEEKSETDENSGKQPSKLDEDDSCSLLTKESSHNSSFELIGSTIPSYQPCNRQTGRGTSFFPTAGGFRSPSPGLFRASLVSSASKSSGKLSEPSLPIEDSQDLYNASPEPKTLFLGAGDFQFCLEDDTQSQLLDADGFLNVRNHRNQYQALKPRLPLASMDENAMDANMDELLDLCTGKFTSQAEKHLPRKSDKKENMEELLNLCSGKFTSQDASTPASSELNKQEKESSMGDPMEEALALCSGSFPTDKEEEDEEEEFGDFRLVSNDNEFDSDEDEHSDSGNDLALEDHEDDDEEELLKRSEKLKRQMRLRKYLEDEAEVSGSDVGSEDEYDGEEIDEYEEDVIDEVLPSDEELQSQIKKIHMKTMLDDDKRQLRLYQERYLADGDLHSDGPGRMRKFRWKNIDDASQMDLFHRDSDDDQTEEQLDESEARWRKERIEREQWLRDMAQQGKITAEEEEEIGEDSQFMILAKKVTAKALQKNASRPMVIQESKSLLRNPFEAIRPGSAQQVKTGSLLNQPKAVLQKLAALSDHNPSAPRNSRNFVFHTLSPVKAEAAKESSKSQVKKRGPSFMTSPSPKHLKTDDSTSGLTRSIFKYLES
UniProt Q96GD4: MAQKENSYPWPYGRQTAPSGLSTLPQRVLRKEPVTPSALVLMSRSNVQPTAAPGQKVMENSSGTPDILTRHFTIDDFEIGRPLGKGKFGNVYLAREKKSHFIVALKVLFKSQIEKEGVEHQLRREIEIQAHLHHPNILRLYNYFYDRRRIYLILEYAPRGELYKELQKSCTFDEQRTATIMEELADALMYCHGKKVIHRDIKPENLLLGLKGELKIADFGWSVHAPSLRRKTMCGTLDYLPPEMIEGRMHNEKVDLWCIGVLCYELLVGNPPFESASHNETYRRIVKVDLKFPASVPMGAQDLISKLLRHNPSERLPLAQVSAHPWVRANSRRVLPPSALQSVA
UniProt O14965: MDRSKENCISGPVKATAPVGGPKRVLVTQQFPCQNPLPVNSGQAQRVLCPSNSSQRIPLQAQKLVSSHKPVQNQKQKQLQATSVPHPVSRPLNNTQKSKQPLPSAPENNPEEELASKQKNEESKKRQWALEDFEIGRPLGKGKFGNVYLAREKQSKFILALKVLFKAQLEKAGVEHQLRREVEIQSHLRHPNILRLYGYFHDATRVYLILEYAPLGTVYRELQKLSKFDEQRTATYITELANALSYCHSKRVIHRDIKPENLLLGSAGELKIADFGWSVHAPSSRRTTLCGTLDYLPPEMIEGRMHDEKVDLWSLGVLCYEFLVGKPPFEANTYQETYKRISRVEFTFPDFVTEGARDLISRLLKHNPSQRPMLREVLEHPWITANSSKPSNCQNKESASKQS
UniProt Q8IY18: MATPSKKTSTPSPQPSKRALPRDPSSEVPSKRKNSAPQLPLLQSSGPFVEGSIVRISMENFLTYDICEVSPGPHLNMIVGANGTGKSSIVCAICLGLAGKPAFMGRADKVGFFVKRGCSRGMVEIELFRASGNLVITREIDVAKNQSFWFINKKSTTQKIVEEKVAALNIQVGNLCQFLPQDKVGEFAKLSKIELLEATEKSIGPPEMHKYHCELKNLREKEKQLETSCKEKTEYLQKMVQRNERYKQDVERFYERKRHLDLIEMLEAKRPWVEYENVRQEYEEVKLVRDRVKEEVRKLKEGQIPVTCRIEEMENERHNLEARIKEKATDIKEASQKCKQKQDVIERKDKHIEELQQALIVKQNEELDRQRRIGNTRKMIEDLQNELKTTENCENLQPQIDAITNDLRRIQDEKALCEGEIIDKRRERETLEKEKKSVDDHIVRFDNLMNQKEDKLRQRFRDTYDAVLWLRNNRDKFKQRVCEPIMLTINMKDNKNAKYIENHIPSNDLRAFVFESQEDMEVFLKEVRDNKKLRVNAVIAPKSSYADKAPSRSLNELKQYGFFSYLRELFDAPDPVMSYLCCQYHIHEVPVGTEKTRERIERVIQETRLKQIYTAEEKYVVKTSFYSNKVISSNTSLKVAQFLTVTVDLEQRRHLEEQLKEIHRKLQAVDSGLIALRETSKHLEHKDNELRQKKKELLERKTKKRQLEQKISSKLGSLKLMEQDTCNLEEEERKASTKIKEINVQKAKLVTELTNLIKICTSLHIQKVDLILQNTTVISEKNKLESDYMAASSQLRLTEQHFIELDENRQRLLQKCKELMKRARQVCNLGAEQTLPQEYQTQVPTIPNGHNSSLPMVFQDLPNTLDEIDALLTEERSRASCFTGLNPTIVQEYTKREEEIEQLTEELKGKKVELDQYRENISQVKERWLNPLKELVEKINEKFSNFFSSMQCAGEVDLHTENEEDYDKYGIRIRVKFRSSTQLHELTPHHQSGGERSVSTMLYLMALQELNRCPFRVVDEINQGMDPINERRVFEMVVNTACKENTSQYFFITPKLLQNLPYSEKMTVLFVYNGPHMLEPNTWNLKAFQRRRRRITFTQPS
UniProt P53350: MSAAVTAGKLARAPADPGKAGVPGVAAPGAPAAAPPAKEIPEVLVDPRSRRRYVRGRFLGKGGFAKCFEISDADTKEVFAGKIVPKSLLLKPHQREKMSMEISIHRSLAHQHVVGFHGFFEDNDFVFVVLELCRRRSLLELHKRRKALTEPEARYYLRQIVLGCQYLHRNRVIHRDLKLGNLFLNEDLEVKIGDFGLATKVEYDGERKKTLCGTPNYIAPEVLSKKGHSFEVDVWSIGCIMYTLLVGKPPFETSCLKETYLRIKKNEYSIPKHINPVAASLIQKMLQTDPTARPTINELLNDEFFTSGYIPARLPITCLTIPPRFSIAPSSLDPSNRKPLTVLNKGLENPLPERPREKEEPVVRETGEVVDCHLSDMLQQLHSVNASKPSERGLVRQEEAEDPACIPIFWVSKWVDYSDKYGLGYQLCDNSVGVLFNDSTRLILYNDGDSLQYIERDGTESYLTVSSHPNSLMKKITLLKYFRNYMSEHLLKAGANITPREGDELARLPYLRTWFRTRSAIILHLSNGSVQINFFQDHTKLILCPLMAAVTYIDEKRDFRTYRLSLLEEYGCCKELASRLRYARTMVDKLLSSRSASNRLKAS

Results are given in words; binding and its absence hold for the method and conditions named. Binding seen in cells or lysates may run through a third protein. These calls come from enrichment with a bait or labelling near it, and not all partners need be listed.

As for Claspin (from UniProt Q9HAW4 1-1339), the binding entry is on record as “binds”.

Turning to “Aurora B, endogenous in 293T cells (from UniProt Q96GD4 1-344) (enzyme)”, the binding entry is “binds”.

For the molecule “Aurora A, endogenous in 293T cells (from UniProt O14965 1-403) (enzyme)”, the binding result is listed as “binds”.

Take SMC5 (from UniProt Q8IY18 1-1101): the binding result is recorded as “binds”.

In the case of “Polo-like kinase 1 (Plk1), endogenous in 293 cells (from UniProt P53350 1-603) (enzyme)”, the binding entry was “binds”.

B1: MCM5 (protein, UniProt P33992 1-734)
chain: MSGFDDPGIFYSDSFGGDAQADEGQARKSQLQRRFKEFLRQYRVGTDRTGFTFKYRDELKRHYNLGEYWIEVEMEDLASFDEDLADYLYKQPAEHLQLLEEAAKEVADEVTRPRPSGEEVLQDIQVMLKSDASPSSIRSLKSDMMSHLVKIPGIIIAASAVRAKATRISIQCRSCRNTLTNIAMRPGLEGYALPRKCNTDQAGRPKCPLDPYFIMPDKCKCVDFQTLKLQELPDAVPHGEMPRHMQLYCDRYLCDKVVPGNRVTIMGIYSIKKFGLTTSRGRDRVGVGIRSSYIRVLGIQVDTDGSGRSFAGAVSPQEEEEFRRLAALPNVYEVISKSIAPSIFGGTDMKKAIACLLFGGSRKRLPDGLTRRGDINLLMLGDPGTAKSQLLKFVEKCSPIGVYTSGKGSSAAGLTASVMRDPSSRNFIMEGGAMVLADGGVVCIDEFDKMREDDRVAIHEAMEQQTISIAKAGITTTLNSRCSVLAAANSVFGRWDETKGEDNIDFMPTILSRFDMIFIVKDEHNEERDVMLAKHVITLHVSALTQTQAVEGEIDLAKLKKFIAYCRVKCGPRLSAEAAEKLKNRYIIMRSGARQHERDSDRRSSIPITVRQLEAIVRIAEALSKMKLQPFATEADVEEALRLFQVSTLDAALSGTLSGVEGFTSQEDQEMLSRIEKQLKRRFAIGSQVSEHSIIKDFTKQKYPEHAIHKVLQLMLRRGEIQHRMQRKVLYRLK
Consider B1, for which the binding result was “binds”.

B2: SMC6 (protein, UniProt Q96SB8 1-1091)
chain: MAKRKEENFSSPKNAKRPRQEELEDFDKDGDEDECKGTTLTAAEVGIIESIHLKNFMCHSMLGPFKFGSNVNFVVGNNGSGKSAVLTALIVGLGGRAVATNRGSSLKGFVKDGQNSADISITLRNRGDDAFKASVYGNSILIQQHISIDGSRSYKLKSATGSVVSTRKEELIAILDHFNIQVDNPVSVLTQEMSKQFLQSKNEGDKYKFFMKATQLEQMKEDYSYIMETKERTKEQIHQGEERLTELKRQCVEKEERFQSIAGLSTMKTNLESLKHEMAWAVVNEIEKQLNAIRDNIKIGEDRAARLDRKMEEQQVRLNEAEQKYKDIQDKLEKISEETNARAPECMALKADVVAKKRAYNEAEVLYNRSLNEYKALKKDDEQLCKRIEELKKSTDQSLEPERLERQKKISWLKERVKAFQNQENSVNQEIEQFQQAIEKDKEEHGKIKREELDVKHALSYNQRQLKELKDSKTDRLKRFGPNVPALLEAIDDAYRQGHFTYKPVGPLGACIHLRDPELALAIESCLKGLLQAYCCHNHADERVLQALMKRFYLPGTSRPPIIVSEFRNEIYDVRHRAAYHPDFPTVLTALEIDNAVVANSLIDMRGIETVLLIKNNSVARAVMQSQKPPKNCREAFTADGDQVFAGRYYSSENTRPKFLSRDVDSEISDLENEVENKTAQILNLQQHLSALEKDIKHNEELLKRCQLHYKELKMKIRKNISEIRELENIEEHQSVDIATLEDEAQENKSKMKMVEEHMEQQKENMEHLKSLKIEAENKYDAIKFKINQLSELADPLKDELNLADSEVDNQKRGKRHYEEKQKEHLDTLNKKKRELDMKEKELEEKMSQARQICPERIEVEKSASILDKEINRLRQKIQAEHASHGDREEIMRQYQEARETYLDLDSKVRTLKKFIKLLGEIMEHRFKTYQQFRRCLTLRCKLYFDNLLSQRAYCGKMNFDHKNETLSISVQPGEGNKAAFNDMRALSGGERSFSTVCFILSLWSIAESPFRCLDEFDVYMDMVNRRIAMDLILKMADSQRFRQFILLTPQSMSSLPSSKLIRILRMSDPERGQTTLPFRPVTQEEDDDQR
Regarding B2, the binding result was “binds”.

B3: MCM3 (protein, UniProt P25205 1-808)
chain: MAGTVVLDDVELREAQRDYLDFLDDEEDQGIYQSKVRELISDNQYRLIVNVNDLRRKNEKRANRLLNNAFEELVAFQRALKDFVASIDATYAKQYEEFYVGLEGSFGSKHVSPRTLTSCFLSCVVCVEGIVTKCSLVRPKVVRSVHYCPATKKTIERRYSDLTTLVAFPSSSVYPTKDEENNPLETEYGLSVYKDHQTITIQEMPEKAPAGQLPRSVDVILDDDLVDKAKPGDRVQVVGTYRCLPGKKGGYTSGTFRTVLIACNVKQMSKDAQPSFSAEDIAKIKKFSKTRSKDIFDQLAKSLAPSIHGHDYVKKAILCLLLGGVERDLENGSHIRGDINILLIGDPSVAKSQLLRYVLCTAPRAIPTTGRGSSGVGLTAAVTTDQETGERRLEAGAMVLADRGVVCIDEFDKMSDMDRTAIHEVMEQGRVTIAKAGIHARLNARCSVLAAANPVYGRYDQYKTPMENIGLQDSLLSRFDLLFIMLDQMDPEQDREISDHVLRMHRYRAPGEQDGDAMPLGSAVDILATDDPNFSQEDQQDTQIYEKHDNLLHGTKKKKEKMVSAAFMKKYIHVAKIIKPVLTQESATYIAEEYSRLRSQDSMSSDTARTSPVTARTLETLIRLATAHAKARMSKTVDLQDAEEAVELVQYAYFKKVLEKEKKRKKRSEDESETEDEEEKSQEDQEQKRKRRKTRQPDAKDGDSYDPYDFSDTEEEMPQVHTPKTADSQETKESQKVELSESRLKAFKVALLDVFREAHAQSIGMNRLTESINRDSEEPFSSVEIQAALSKMQDDNQVMVSEGIIFLI
As for B3, the binding result is “binds”.

B4: Tipin (protein, UniProt Q9BVW5 1-301)
chain: MLEPQENGVIDLPDYEHVEDETFPPFPPPASPERQDGEGTEPDEESGNGAPVRVPPKRTVKRNIPKLDAQRLISERGLPALRHVFDKAKFKGKGHEAEDLKMLIRHMEHWAHRLFPKLQFEDFIDRVEYLGSKKEVQTCLKRIRLDLPILHEDFVSNNDEVAENNEHDVTSTELDPFLTNLSESEMFASELSRSLTEEQQQRIERNKQLALERRQAKLLSNSQTLGNDMLMNTPRAHTVEEVNTDEDQKEESNGLNEDILDNPCNDAIANTLNEEETLLDQSFKNVQQQLDATSRNITEAR
As to B4, the binding entry is given as “binds”.

The values above are taken from paper PMC3089618.
